Chains of the proteins cited; added tags and fusions are not shown. Lines headed by an entry give the natural chain unless they say otherwise; changes in a name come on top.
UniProt Q9UHX1: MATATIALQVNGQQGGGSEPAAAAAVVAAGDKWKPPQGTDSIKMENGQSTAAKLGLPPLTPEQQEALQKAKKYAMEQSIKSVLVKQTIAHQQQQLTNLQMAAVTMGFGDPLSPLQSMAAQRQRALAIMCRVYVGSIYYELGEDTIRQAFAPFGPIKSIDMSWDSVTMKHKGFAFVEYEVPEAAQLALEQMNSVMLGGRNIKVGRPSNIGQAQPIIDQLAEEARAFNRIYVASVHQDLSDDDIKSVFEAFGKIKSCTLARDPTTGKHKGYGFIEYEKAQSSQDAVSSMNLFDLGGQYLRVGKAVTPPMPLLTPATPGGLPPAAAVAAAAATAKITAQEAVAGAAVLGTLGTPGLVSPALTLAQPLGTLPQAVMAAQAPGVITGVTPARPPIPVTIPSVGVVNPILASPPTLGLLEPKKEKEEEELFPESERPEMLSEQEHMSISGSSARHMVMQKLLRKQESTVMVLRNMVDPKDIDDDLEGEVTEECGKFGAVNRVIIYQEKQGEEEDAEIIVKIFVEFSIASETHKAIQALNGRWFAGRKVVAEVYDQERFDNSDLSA
UniProt O75533: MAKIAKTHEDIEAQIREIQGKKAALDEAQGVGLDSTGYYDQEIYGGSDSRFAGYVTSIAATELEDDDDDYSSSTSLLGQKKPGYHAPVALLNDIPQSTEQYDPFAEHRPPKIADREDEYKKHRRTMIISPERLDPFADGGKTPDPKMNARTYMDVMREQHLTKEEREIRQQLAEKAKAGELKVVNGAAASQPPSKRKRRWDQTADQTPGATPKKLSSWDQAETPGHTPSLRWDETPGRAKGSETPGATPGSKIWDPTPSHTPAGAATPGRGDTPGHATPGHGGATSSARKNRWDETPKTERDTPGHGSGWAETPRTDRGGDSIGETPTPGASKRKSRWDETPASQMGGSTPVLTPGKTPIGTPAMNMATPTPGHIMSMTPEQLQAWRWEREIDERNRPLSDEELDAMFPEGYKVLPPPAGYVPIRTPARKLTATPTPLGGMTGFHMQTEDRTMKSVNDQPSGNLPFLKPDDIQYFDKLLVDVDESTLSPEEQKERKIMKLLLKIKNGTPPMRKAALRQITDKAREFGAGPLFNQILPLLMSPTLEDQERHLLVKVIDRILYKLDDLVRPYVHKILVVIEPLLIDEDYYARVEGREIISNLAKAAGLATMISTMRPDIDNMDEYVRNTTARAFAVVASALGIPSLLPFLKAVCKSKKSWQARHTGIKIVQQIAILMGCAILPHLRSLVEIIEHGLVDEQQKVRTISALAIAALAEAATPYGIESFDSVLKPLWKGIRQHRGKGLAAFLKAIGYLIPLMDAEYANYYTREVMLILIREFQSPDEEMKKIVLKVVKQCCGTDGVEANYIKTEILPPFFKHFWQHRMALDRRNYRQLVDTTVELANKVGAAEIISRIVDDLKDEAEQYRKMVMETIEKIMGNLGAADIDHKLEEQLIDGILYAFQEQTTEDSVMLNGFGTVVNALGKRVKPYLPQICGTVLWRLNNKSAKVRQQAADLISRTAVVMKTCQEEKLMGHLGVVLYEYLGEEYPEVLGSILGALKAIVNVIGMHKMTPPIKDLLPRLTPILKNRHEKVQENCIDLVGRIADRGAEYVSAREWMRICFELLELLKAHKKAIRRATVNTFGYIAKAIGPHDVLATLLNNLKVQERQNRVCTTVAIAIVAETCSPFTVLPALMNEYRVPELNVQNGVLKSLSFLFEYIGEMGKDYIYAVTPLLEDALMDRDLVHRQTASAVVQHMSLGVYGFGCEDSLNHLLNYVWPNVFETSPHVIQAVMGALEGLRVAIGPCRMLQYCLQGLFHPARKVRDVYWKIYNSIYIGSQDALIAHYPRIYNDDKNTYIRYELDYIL
UniProt Q07955: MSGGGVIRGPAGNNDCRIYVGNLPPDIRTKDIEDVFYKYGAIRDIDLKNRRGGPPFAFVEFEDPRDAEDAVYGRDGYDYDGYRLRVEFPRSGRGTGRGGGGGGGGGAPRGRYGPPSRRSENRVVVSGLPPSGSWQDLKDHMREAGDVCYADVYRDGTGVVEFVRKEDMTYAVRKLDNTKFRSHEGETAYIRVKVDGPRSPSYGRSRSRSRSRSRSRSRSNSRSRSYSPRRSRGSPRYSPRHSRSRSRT
UniProt P08621: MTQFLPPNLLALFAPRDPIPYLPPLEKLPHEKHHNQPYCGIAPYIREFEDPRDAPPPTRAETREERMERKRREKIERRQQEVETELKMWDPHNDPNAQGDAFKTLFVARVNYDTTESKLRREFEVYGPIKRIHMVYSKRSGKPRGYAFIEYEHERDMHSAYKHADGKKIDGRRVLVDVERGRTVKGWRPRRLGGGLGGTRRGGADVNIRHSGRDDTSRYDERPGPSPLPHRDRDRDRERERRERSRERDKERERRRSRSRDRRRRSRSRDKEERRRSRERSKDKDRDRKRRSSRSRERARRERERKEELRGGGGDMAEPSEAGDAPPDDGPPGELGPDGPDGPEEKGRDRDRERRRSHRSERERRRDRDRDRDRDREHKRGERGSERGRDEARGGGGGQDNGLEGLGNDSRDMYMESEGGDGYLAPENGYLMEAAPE
UniProt P38919: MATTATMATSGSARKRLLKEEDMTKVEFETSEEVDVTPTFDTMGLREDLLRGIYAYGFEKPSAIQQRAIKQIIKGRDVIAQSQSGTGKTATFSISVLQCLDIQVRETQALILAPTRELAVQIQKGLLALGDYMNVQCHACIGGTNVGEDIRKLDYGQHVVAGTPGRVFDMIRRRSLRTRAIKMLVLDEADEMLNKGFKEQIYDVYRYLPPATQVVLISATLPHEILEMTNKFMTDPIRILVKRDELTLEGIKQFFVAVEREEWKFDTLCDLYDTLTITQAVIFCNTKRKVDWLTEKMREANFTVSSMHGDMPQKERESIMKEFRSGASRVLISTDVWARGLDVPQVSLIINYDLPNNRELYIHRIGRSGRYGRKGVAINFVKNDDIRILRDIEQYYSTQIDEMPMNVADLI
UniProt O95218: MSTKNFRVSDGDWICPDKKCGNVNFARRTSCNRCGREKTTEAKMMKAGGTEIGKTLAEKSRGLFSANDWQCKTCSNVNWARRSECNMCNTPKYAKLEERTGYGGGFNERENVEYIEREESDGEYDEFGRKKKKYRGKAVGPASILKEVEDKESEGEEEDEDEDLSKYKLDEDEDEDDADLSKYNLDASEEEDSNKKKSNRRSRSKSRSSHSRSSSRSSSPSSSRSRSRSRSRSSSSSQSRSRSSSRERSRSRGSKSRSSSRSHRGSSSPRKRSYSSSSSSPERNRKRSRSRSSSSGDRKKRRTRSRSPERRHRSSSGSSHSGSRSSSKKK
UniProt P35637: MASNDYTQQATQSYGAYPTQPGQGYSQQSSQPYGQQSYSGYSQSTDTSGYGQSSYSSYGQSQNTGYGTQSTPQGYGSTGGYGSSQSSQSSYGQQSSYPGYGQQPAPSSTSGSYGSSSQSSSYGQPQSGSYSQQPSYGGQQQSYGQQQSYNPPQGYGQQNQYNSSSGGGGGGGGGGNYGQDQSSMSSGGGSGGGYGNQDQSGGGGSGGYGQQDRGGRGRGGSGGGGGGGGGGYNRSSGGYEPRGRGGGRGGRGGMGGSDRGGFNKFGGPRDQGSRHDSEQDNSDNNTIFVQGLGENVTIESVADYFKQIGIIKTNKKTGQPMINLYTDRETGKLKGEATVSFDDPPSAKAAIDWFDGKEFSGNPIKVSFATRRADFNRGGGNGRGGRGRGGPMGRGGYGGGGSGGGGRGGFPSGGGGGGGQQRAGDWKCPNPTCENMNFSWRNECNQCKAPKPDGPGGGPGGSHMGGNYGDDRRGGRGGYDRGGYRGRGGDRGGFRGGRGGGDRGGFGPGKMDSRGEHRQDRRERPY
UniProt Q9Y580: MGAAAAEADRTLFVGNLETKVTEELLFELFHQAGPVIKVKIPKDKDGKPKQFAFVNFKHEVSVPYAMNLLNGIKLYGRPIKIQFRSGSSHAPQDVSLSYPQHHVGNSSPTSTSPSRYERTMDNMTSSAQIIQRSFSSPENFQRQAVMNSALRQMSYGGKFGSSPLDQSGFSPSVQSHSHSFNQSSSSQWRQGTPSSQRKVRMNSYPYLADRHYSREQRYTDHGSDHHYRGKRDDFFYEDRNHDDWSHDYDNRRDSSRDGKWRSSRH
UniProt Q15393: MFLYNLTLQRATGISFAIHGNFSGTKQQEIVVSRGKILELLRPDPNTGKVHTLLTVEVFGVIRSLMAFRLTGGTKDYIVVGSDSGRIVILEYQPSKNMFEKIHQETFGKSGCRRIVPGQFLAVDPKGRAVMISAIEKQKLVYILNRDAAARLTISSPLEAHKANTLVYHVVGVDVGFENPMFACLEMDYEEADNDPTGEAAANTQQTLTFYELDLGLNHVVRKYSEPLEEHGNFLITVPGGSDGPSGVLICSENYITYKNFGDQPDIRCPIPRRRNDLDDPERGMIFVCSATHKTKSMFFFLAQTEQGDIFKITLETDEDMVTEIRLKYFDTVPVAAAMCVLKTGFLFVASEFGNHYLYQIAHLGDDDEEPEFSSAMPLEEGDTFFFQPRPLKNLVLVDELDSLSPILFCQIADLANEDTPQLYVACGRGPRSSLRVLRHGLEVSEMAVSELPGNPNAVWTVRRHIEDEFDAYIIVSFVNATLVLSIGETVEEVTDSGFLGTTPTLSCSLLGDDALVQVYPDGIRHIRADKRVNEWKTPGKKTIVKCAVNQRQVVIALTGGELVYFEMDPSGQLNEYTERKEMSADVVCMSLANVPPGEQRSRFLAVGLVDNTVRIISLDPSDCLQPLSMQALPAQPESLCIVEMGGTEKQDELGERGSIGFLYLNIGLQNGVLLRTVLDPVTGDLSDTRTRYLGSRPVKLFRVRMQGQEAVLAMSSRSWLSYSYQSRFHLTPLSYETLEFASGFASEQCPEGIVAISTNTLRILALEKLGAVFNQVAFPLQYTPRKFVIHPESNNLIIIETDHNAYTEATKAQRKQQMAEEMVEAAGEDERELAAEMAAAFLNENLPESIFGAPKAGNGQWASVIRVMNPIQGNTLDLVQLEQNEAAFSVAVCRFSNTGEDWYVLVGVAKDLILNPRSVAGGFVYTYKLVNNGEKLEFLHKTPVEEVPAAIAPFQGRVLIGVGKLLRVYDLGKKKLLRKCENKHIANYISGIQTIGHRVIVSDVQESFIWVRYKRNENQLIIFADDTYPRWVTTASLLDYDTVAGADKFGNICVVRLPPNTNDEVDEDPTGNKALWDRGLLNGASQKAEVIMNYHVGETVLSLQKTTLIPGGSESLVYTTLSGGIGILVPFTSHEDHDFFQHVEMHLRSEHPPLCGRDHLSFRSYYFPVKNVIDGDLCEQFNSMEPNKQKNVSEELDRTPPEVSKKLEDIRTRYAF
UniProt P09012: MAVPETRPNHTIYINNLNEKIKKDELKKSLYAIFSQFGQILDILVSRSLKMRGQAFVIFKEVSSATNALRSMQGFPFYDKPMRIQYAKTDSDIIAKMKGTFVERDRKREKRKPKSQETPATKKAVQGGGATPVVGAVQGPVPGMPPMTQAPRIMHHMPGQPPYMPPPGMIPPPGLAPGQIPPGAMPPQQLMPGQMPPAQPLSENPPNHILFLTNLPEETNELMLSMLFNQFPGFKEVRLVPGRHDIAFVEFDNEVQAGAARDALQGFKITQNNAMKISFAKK
UniProt Q13435: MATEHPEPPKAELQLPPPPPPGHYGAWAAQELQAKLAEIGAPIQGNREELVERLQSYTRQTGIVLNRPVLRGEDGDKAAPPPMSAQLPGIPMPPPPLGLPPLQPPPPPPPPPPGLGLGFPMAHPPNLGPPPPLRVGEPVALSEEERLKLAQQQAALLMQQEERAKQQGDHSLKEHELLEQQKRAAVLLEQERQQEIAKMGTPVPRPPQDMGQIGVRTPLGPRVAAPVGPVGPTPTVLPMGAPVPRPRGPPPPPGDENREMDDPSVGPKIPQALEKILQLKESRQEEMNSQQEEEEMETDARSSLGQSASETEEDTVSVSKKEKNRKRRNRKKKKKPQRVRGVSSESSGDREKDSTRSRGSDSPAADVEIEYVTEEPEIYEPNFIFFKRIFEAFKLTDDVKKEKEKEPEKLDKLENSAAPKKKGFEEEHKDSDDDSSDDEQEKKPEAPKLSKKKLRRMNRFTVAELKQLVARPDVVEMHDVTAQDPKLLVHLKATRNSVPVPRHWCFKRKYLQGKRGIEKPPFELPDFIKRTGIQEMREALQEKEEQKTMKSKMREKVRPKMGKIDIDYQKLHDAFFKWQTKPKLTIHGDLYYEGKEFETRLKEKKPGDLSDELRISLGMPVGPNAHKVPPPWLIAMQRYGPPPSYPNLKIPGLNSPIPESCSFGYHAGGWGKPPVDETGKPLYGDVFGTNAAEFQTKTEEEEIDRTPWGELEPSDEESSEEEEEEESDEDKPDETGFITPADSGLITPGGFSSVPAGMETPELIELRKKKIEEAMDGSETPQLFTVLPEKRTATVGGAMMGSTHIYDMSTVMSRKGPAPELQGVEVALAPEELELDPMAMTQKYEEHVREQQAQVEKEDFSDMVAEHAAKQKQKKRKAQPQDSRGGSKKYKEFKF

In paper PMC1888729:

Target: FLAG-V5-tagged PUF60 (PUF60L) (human) (UniProt Q9UHX1)
Assay: affinity purification with mass spectrometry; F-V5-PUF60L precipitated from HeLa S3 nuclear extract on ANTI-FLAG M2 Affinity Gel, 1 h at 4°C, IP buffer (20 mM Hepes pH 8, 150 mM KCl, 1.5 mM MgCl2); washes with 250 mM KCl, 0.05% Triton X-100, one with 200 ng/ml RNase A; digested on the beads, or eluted with FLAG peptide and gel bands excised; only proteins found in both experiments and absent from control HeLa extract are listed

binding, binds:
SF3b155 (from UniProt O75533 1-1304)
SF2/ASF (from UniProt Q07955 1-248)
U1 70K (from UniProt P08621 1-437)
eIF4AIII/DDx48 (from UniProt P38919 1-411)
ZN265 (from UniProt O95218 1-330)
FUS (from UniProt P35637 1-526)
RBM7 (from UniProt Q9Y580 1-266)
SF3B130 (from UniProt Q15393 1-1217)
SRM300 (from UniProt Q9UQ35 1-2752)
U1A (from UniProt P09012 1-282)
SF3B145 (from UniProt Q13435 1-895)
Ro 60KDa (from UniProt P10155 1-538)

Results are given in words; binding and its absence hold for the method and conditions named. Binding seen in cells or lysates may run through a third protein. Here binding means that the protein was enriched with, or labelled near, the bait; the list need not be complete.
